Here are results for 83 variants from the RNAGym collection of RNA variant scans (doi:10.1126/science.aae0568).

First the molecules themselves.
B1: tRNA (parent)
chain: GUUCCGUUGGCGUAAUGGUAACGCGUCUCCCUCCUAAGGAGAAGACUGCGGGUUCGAGUCCCGUACGGAACG

Variants at the background level are over-represented here.

This data set covers variants of B1. In words: yeast fitness relative to wild type (ratio to wild type); higher = fitter; tRNA-Arg(CCU), competitive growth, 37 C, YPD. A digest of the protocol:
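Amplicons of the tRNA-Arg(CCU) gene were sequenced, 100-nucleotide paired-end, from the start population and from each end population of a pooled yeast competition. The competition, in six parallel replicates, lasted 24 hours in YPD at 37°C. Fitness relative to wild type was calculated from changes in genotype frequencies. Genotypes had to have ≥ 100 starting reads, and estimates < 0.5 were set to 0.5.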
On to A15C C27U C34U G52A C61A A70U, for which the yeast fitness was at most 0.5.

Regarding A15G G17A C33U G39C C55A G67C, the yeast fitness was determined as 0.66.

Turning to C29U C33U U35C U54A, the yeast fitness was at most 0.5.

Take C24U C49A U64C: the yeast fitness was found to be 1.04.

In the case of U7G G18A C27G U28G, the yeast fitness is at most 0.5.

For the variant C11U A20G C27G C34G U47A A65G C66U, the yeast fitness was at most 0.5.

Regarding U2A C11G A21G G56A, the yeast fitness was at most 0.5.

Take U28G A43U G67C: the yeast fitness was at most 0.5.

Regarding U7A A20C U26A, the yeast fitness was at most 0.5.

As to G6A G23C C24G C34G U64A, the yeast fitness is at most 0.5.

For the variant C4G C11A C29U C33U U54C, the yeast fitness was at most 0.5.

As for A20G C46G G56C, the yeast fitness is at most 0.5.

A37C A70G: the yeast fitness amounted to 0.769.

In the case of U16C U32C, the yeast fitness turned out to be 0.918.

Turning to C29G C30A C49U, the yeast fitness was at most 0.5.

Turning to C34A C60A, the yeast fitness is at most 0.5.

In the case of C5G C46G, the yeast fitness was determined as 0.751.

On to C4U C33A G67C, for which the yeast fitness is at most 0.5.

With A21G C60G A70C, the yeast fitness stood at 0.579.

U19A C62U: the yeast fitness is 0.931.

As for C31U G58C U59G C61G, the yeast fitness was at most 0.5.

As to C30A G67C, the yeast fitness stood at 0.841.

In the case of C4A G44C C49U G51A G58C U59A, the yeast fitness is at most 0.5.

Turning to C5A U8C C27U A40G C49U C55G, the yeast fitness is at most 0.5.

C5A C30G A57G: the yeast fitness is at most 0.5.

Consider C5U C49U C66A G67A, for which the yeast fitness was at most 0.5.

As to A15U C60G C61U G68A, the yeast fitness was at most 0.5.

Take U3A A15G U19A U32C G41A G50A: the yeast fitness is at most 0.5.

With C4U A21C C30A C31G U32C C49U G52C, the yeast fitness is at most 0.5.

As to A20G G23C, the yeast fitness amounted to 0.727.

C4G C11G G52A: the yeast fitness is at most 0.5.

As for A21U C30U A42G C55U, the yeast fitness is at most 0.5.

Regarding C33A U54G G63A, the yeast fitness is at most 0.5.

Consider A14C C27G C46G G63A A65G, for which the yeast fitness is at most 0.5.

Take A15U G39A: the yeast fitness was 0.667.

G9C C34G G68A: the yeast fitness was at most 0.5.

Regarding U19A G23C C30G U47A A65G, the yeast fitness is at most 0.5.

In the case of C4U C30A U53C A70C, the yeast fitness was at most 0.5.

With G25A A37G A45C C66U G67C, the yeast fitness was at most 0.5.

For G17C G18C C66U, the yeast fitness was at most 0.5.

With G6C G25C A37U G39C, the yeast fitness is at most 0.5.

Consider U13C A57C C61A, for which the yeast fitness is at most 0.5.

Turning to C11U G56A, the yeast fitness turned out to be 0.901.

Take C24U C33G C34U A57U: the yeast fitness amounted to 0.583.

As for C29A C49U U64A, the yeast fitness is at most 0.5.

Turning to G12A A15U C22A U54A, the yeast fitness is at most 0.5.

As for A43G G51A G52A A69C, the yeast fitness was at most 0.5.

Regarding A15U A20G C22G U28A C31G C55A G68C, the yeast fitness was at most 0.5.

For U7C A37G C49A, the yeast fitness is at most 0.5.

With U16C A21C C49A G58A C66U G68A, the yeast fitness is at most 0.5.

Consider G6C G56A C60G, for which the yeast fitness was at most 0.5.

On to G10C A45U, for which the yeast fitness is 0.778.

For U35G A57G C61G C62U, the yeast fitness was at most 0.5.

As to C24A G44C C49A A69C, the yeast fitness is at most 0.5.

In the case of C29U C33A C34U G51C U64A C66U A69C, the yeast fitness is at most 0.5.

For the variant U7C C27G A42U G48A, the yeast fitness is at most 0.5.

As for A14G C24A A36G U64A, the yeast fitness was at most 0.5.

On to C5G A14U C27G C34G, for which the yeast fitness was at most 0.5.

Turning to A15G C31G, the yeast fitness came out at 0.852.

Consider C4G U8C U28G C49A C62G G68U, for which the yeast fitness is at most 0.5.

For U7G G18C U53G, the yeast fitness is at most 0.5.

As for A20G U35A A36U C61U, the yeast fitness was at most 0.5.

Consider C4A C5A G12C, for which the yeast fitness was at most 0.5.

For U32G G68C A69G, the yeast fitness was at most 0.5.

Consider A20G C30A G48A U64C, for which the yeast fitness is at most 0.5.

With A42U C55U U59C G63A A65C, the yeast fitness is at most 0.5.

U16C C55G G56C: the yeast fitness was at most 0.5.

With A20U U26C C33G, the yeast fitness is at most 0.5.

As for C5G U8C A36U G41A A65U, the yeast fitness was at most 0.5.

Consider U8C G25A G48A C62G A69U, for which the yeast fitness was at most 0.5.

For the variant G18C A43C C55U G58A C61U, the yeast fitness is at most 0.5.

Consider U7G A42G G68A, for which the yeast fitness is at most 0.5.

C4A A15U A42G: the yeast fitness is at most 0.5.

G9A C11A G38C C60G: the yeast fitness is at most 0.5.

For the variant C29G G67A, the yeast fitness is 0.565.

With U53C A57C G67C, the yeast fitness is at most 0.5.

U28A C31U G41A: the yeast fitness is at most 0.5.

Take U8A A14U A15G U32C A57U: the yeast fitness turned out to be 0.599.

C11A G12A U16A G23C G56A: the yeast fitness was at most 0.5.

In the case of C5U A15G U19A A21U C34U, the yeast fitness was at most 0.5.

Turning to U2A C4U C29G C33G G52C, the yeast fitness was at most 0.5.

Take C11G A37G G39A G48A C62U: the yeast fitness is at most 0.5.

With U19A A42G U47C, the yeast fitness was at most 0.5.
